Data from the supplement of paper PMC5949888.
Most values lie at the floor of the assay. Slopes are relative: functional sequences can read slightly below zero.

tested on: Saccharomyces cerevisiae PS128 hsf1 delta, HSF1(1-493) fusion; assay: growth estimate (transactivation domain function in HSF1 fusion, heat-shock survival) (a.u. (slope of normalised read count over time)); higher = stronger growth at 37°C, i.e. more transactivation activity; conditions: library: random library

Substance	growth estimate
LDNGPWRTKFQEPSSTVSAL	< -0.25
VFVAVA	< -0.25
DKLFRTPDHE	< -0.25
AVGIGLGDRSVIRMTTETGS	< -0.25
LTHAGFAA	< -0.25
RLRQACLRGCAGVVTLVPWP	< -0.25
TNPCEF	< -0.25
GVIS	< -0.25
AWCRVGFRWATNRIRLFDVA	< -0.25
DRVNHGLHHCFAVLLLQRVR	< -0.25
SSVSAHECYRGARTLCLLSN	< -0.25
PDLMTERSRLGPGATGVAEQ	< -0.25
VYCYRREGAYVQVSRSEVSS	< -0.25
FRLRRKNNKESGVREVRSDP	-0.245
VQAAF	< -0.25
RCSRMRPVYRVDRETAT	< -0.25
LNTHETAGLPKGSISS	< -0.25
LSVHSVGRTKQLVWL	< -0.25
SQMVLDQVLRQGDPLQDSLC	< -0.25
QTNEPQGGELPRIFTLQLTV	< -0.25
SPCGGRSRCLPSASQNAMQG	< -0.25
APDQAYVSGSCRTGIGEDVA	< -0.25
VWVQGTVPRITVFNLFCAA	< -0.25
YGITVPAATRGLEFNQYQY	< -0.25
AKHIKLNVFNEIWGQRVVK	< -0.25

Two entries from above, set out differently:
Substance | growth estimate
DRVNHGLHHCFAVLLLQRVR | < -0.25
SSVSAHECYRGARTLCLLSN | < -0.25

(next part)

Substance	growth estimate
MQLHRTRFYPSLVGQFWQS	< -0.25
RQFGLTRRASHILPATNLFA	< -0.25
AICKSHGQYNTYSRQMLLRS	< -0.25
EPPCVHMGRSR	< -0.25
GEWLSVAE	< -0.25
LEYR	< -0.25
GQEALASGGPP	< -0.25
GNRSRPLRPVIRMVRLSLRP	< -0.25
VPVK	< -0.25
KILFVCGGRRREERDLFLLR	< -0.25
LRVFVFVMTCGRGRHVAYRC	< -0.25
CTSDTRANDWGR	< -0.25
CVSFQRLF	< -0.25
LGMGGPRGLIGWFADLSVFR	< -0.25
RAGIWVVSI	< -0.25
TNRLRVEPRPTPNGTLSLVH	< -0.25
DPSHRECQNDYDAELFGASV	0.527
PYYGLPVVAVLDGGEWEFWV	< -0.25
LVRLLSGQSWNQQVKLNR	< -0.25
WSGSCKT	-0.246
WAPP	< -0.25
KNIDAAWRLLAKANANGNRP	< -0.25
TNN	< -0.25
TTSVSVKLTYIATGGQYFG	< -0.25
TSLTFILS	< -0.25

Substance	growth estimate
RDGRKVVCPLQGGESKIMEL	< -0.25
PHLYRRS	< -0.25
SFA	< -0.25
GGFRGYGSFR	-0.25
FNAATIGDGLQKELPRGMVA	< -0.25
AYTCRRMLRGESSGIVSLTV	< -0.25
SSLSQNVGMESRKRKPGFTS	< -0.25
VWRKKRCEQR	< -0.25
EVKMPLLVPSAMQGCDDCHD	-0.246
FTRDRGGRS	< -0.25
HSISPGQSTIASARFGLAMC	< -0.25
HVQHGHFIRFFEPAQHVHNV	< -0.25
ALRQTLS	< -0.25
SDFGGR	< -0.25
CQRQLHGRGQDRYYAIFLDP	< -0.25
VLRVYFHANWDPDTT	< -0.25
TAPSSERRQLVRQRA	< -0.25
TLAAVSLGRLVESFSRQAGP	< -0.25
LLGLNLPRLRGRLLFPYHIM	< -0.25
RTKICRLVLVNGHRDVARNR	< -0.25
DRFLRHIRFWSNL	-0.243
VQGYS	< -0.25
GQPPIEHSHGGGPSRHWQSL	< -0.25
IRFYRLSWFQVLVACLKFTA	< -0.25
AGNTCA	< -0.25

Substance	growth estimate
TFSGLHPYTSDEDPQKPCHN	< -0.25
YDVRCRSAIMGPC	-0.246
LSARSTRIVDLER	< -0.25
IRSGKIYTN	< -0.25
HTRKSAKLRHARYLPRRKVE	< -0.25
AYPQTFSFGLESKLDSSTFV	< -0.25
AQGVSITRQRTHGSTRMLNE	< -0.25
TSDWWERVRSRYSNP	< -0.25
PNFAPRS	< -0.25
VWGVRCN	< -0.25
QEAP	< -0.25
FWYSGL	-0.249
VSPSGSLKLTLYCPAKGTS	< -0.25
FRSLVDLSHRSNLIAPMRIT	< -0.25
HRADSLPSQCTKCYCGFLRH	< -0.25
PGNWYYELVGRGSHRPNALA	< -0.25
EVGSVTLVLLAYPSSLAFTS	< -0.25
PAVDSQAWARIPHIPPVPDE	< -0.25
ESLGPTIDLWAGVQLSGGAR	< -0.25
VCRTRRTWV	< -0.25
QLRSTGLGRSSPLLELTAPG	< -0.25
IPSVFRTLLRT	< -0.25
FHSTTPGLAAPLKDEADYMV	< -0.25

A portion of the results above, for reference:
Substance	growth estimate
TFSGLHPYTSDEDPQKPCHN	< -0.25
YDVRCRSAIMGPC	-0.246
LSARSTRIVDLER	< -0.25
